According to doi:10.1101/2022.02.27.482165:
These are yes or no findings as the source states them, for the method shown. In cells and extracts the contact can be indirect. Some results given as binding are weak or reduced against the parent protein; the word gives no strength.

Amino acid sequences for entries named in this document (tags omitted).
UniProt O14497: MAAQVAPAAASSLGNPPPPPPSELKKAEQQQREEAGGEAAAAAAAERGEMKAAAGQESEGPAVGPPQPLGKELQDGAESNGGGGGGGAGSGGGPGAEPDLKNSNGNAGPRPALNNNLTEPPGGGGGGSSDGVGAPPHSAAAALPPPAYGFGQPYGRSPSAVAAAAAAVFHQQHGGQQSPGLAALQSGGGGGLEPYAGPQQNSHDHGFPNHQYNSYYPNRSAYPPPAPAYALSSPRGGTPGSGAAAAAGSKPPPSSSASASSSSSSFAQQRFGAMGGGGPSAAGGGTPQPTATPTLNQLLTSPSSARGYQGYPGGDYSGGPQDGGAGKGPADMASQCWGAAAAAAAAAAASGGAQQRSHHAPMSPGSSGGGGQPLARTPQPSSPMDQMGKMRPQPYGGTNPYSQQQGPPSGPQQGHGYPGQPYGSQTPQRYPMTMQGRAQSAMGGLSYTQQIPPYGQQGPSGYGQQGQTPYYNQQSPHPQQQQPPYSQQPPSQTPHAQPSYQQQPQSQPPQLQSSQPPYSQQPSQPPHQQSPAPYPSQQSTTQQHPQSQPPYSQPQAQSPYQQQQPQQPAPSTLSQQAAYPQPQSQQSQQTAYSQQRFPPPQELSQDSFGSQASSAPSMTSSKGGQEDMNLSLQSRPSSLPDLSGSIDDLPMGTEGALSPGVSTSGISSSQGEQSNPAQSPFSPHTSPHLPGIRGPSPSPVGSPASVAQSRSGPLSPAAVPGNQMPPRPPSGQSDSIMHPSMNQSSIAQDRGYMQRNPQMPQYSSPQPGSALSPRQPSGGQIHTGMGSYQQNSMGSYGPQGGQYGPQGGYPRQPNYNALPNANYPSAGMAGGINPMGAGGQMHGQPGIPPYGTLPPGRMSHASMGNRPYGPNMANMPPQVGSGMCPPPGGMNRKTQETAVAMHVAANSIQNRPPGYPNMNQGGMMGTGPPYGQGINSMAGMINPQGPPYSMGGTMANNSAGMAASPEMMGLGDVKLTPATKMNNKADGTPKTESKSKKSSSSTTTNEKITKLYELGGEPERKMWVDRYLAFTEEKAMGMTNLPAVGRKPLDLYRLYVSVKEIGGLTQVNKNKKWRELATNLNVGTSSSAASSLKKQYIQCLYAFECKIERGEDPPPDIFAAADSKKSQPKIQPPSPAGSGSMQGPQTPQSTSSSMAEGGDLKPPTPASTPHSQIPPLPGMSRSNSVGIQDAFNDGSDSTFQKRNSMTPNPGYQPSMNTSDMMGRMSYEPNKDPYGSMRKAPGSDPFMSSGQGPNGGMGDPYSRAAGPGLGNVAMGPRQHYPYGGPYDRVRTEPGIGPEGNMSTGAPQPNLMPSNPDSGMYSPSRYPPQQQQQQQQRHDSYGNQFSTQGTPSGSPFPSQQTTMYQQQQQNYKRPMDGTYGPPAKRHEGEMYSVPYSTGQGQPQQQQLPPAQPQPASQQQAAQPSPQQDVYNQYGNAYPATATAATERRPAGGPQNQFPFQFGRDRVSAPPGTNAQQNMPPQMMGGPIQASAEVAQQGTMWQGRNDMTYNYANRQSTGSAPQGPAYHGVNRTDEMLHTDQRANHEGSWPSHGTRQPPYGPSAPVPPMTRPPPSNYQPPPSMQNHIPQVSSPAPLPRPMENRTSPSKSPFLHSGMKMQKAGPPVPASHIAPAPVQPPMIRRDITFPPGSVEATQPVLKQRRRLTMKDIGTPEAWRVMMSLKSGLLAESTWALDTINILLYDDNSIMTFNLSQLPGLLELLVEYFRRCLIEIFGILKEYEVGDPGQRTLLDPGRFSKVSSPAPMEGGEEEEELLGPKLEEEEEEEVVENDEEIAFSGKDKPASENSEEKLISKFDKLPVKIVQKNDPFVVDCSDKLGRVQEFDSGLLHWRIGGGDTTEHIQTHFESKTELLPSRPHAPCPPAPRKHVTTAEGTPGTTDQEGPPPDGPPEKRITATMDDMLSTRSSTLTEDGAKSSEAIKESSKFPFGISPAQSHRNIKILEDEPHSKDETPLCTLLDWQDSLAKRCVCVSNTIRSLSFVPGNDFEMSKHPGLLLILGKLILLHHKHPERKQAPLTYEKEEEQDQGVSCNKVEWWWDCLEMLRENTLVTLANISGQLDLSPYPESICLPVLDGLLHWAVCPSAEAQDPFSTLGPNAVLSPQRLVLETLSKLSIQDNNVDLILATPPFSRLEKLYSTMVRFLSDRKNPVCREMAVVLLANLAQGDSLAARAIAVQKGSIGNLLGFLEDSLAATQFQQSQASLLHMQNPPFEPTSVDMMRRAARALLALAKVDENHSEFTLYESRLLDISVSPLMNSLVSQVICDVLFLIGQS
UniProt Q14839: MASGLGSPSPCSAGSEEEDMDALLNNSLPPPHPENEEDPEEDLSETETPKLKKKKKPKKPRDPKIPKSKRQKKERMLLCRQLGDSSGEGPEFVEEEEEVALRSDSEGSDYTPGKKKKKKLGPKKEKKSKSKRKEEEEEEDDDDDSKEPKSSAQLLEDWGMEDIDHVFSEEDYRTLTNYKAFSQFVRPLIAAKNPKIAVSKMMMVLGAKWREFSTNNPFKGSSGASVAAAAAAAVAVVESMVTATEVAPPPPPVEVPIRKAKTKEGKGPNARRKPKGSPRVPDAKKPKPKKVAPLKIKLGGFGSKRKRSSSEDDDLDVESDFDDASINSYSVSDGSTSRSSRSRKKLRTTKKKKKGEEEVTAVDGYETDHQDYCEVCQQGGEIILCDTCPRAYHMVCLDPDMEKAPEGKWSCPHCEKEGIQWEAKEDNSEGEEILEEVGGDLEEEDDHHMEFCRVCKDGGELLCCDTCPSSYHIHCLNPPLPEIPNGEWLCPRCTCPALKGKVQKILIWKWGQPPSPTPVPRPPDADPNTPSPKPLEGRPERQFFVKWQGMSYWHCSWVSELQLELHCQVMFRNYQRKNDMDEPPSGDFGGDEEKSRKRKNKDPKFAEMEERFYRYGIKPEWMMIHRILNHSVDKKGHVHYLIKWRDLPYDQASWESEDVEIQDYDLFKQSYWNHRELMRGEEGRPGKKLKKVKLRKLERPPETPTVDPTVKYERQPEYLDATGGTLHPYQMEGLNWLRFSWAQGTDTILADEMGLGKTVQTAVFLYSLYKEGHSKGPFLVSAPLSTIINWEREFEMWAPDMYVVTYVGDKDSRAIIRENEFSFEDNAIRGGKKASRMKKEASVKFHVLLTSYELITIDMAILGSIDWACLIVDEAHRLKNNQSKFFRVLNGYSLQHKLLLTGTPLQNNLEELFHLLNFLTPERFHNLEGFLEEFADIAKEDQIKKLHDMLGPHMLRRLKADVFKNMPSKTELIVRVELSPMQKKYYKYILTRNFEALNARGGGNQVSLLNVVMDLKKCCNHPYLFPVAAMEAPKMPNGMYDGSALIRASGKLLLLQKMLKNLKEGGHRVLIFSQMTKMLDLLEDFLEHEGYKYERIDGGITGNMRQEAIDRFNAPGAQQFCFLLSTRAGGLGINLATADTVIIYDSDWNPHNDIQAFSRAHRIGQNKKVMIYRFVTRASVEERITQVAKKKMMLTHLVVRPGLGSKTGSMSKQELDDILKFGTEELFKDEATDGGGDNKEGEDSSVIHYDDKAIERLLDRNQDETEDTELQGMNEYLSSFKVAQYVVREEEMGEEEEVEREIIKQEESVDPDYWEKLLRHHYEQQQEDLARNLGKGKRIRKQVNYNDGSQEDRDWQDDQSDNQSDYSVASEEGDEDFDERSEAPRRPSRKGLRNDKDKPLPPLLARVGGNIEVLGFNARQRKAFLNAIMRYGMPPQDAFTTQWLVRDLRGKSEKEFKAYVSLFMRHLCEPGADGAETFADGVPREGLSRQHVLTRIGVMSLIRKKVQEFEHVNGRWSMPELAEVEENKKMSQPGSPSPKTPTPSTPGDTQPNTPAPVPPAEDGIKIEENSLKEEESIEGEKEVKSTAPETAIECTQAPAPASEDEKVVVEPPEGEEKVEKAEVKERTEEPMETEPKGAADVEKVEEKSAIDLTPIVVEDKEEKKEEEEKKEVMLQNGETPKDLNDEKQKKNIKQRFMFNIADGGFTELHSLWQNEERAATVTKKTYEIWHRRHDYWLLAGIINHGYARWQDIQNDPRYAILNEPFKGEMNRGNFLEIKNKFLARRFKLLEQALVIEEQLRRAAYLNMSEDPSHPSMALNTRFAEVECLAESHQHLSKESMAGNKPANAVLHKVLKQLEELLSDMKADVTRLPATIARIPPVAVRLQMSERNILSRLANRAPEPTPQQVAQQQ

Target: ARID1A (human (endogenous in 12Z)) (UniProt O14497)
Assay: co-IP

CHD4 (from UniProt Q14839 1-1912)
binding: binds
